Experimental data: patent publication US11896678B2, “Compositions and methods for treatment of peroxisome proliferator-activated receptor gamma (PPARG) activated cancer” (THE BROAD INSTITUTE, INC., priority 2017, dated 2024)
Results are given in words; binding and its absence hold for the method and conditions named. Some entries that bind do so weakly or less than the wild type.

Amino acid sequences for entries named in this document (tags omitted). A change or cut given only in a name is not applied to a line headed by its entry.
UniProt O18924: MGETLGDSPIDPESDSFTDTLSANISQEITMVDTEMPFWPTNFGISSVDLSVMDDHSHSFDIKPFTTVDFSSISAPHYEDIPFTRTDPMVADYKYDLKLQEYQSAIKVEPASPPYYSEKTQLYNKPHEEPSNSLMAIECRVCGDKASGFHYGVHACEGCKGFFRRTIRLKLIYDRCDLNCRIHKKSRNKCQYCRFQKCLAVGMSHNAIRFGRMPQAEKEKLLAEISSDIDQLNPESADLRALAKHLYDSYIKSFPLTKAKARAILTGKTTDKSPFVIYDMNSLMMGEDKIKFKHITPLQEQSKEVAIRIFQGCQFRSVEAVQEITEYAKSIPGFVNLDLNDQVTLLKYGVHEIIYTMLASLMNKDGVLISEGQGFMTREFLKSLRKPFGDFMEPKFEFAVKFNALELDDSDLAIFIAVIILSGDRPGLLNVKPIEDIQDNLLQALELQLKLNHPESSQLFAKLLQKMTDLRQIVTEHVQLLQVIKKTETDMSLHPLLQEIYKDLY
UniProt Q15648: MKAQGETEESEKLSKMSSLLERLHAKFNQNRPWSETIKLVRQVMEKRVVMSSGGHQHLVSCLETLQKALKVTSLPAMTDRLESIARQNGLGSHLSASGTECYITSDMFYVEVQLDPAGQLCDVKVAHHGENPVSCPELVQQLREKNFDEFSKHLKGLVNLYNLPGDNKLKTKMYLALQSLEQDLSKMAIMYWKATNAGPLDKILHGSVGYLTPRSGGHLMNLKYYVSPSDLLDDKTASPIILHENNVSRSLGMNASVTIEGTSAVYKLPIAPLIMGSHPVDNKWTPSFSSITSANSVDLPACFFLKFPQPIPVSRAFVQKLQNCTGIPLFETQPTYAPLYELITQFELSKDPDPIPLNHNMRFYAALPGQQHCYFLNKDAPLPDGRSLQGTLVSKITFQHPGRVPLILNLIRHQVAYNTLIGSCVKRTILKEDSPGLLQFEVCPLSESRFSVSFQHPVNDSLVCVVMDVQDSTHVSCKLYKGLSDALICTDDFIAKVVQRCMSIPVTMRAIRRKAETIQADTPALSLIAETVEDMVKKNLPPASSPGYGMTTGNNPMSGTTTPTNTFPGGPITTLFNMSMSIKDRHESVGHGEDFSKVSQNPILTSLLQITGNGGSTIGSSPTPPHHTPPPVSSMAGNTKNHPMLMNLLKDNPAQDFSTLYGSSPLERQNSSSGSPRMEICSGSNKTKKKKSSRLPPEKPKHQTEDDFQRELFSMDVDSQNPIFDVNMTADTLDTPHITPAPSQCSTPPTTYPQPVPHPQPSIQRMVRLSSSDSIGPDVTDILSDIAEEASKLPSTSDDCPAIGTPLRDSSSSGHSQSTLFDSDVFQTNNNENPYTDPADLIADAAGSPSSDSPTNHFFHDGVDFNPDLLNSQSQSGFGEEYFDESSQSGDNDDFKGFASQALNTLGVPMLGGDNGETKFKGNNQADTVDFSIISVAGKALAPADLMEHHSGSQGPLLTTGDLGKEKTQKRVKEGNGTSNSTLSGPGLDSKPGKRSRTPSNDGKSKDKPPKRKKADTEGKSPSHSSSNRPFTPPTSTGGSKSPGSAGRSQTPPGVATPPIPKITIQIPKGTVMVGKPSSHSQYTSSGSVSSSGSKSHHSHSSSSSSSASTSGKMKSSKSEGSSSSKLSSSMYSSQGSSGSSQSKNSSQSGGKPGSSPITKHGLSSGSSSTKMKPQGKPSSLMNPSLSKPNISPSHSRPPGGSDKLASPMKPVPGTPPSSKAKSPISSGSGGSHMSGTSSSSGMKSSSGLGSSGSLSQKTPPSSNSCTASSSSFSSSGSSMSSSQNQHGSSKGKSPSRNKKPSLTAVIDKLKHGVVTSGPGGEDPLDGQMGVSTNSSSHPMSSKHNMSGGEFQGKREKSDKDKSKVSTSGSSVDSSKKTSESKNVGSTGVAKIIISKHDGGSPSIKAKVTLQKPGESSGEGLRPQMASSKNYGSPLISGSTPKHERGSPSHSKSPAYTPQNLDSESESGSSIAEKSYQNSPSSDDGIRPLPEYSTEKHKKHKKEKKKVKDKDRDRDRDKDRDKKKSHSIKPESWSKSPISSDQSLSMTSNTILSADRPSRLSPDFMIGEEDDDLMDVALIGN

Biological target: Terbium-labeled PPARG ligand binding domain (PPARG-LBD) (Macaca mulatta (Rhesus macaque)) (UniProt O18924)
Experiment: TR-FRET coactivator assay: PPARG ligand-binding domain and fluorescently-labeled TRAP220/MED1 peptide, with full agonists

binding: binds
Binder: NTKNHPMLMNLLKDNPAQD (peptide, UniProt Q15648 638-656, looked up, fluorescein-labeled (site not stated)) [fluorescently-labeled TRAP220 (MED1) coactivator peptide]
